At least one compound was matched to its structure with a doubt left.
System: mTor kinase activity in BCBL1 cells
Assay: Immunoblot of p70S6K and ribosomal protein S6 phosphorylation
Type: cell-based
Conditions: treated BCBL1 cells
Experimental: Levels of phosphorylation of p70S6K and ribosomal protein S6 in BCBL1 cells were evaluated by immunoblotting with α-p70S6K, aphospho-specific p70S6K, aphospho-specific S6, or αactin.

CO[C@H]1C[C@@H]2CC[C@@H](C)[C@@](O)(O2)C(=O)C(=O)N2CCCC[C@H]2C(=O)O[C@H]([C@H](C)C[C@@H]2CC[C@@H](O)[C@H](OC)C2)CC(=O)[C@H](C)/C=C(\C)[C@@H](O)[C@@H](OC)C(=O)[C@H](C)C[C@H](C)/C=C/C=C/C=C/1C [rapamycin]
phosphorylation of p70S6K: near complete loss of the phosphorylation
phosphorylation of ribosomal protein S6: near complete loss of the phosphorylation

Reference: patent US20130316958A1 (University of Southern California, priority 2010, published 2013)
